Test results taken from paper PMC9653720.
Results are given in words; binding and its absence hold for the method and conditions named. Binding seen in cells or lysates may run through a third protein. Some binding calls cover weakened binding; strength is not graded here.

The chains behind the UniProt entries cited, without tags or fusion partners.
UniProt Q8TDY2: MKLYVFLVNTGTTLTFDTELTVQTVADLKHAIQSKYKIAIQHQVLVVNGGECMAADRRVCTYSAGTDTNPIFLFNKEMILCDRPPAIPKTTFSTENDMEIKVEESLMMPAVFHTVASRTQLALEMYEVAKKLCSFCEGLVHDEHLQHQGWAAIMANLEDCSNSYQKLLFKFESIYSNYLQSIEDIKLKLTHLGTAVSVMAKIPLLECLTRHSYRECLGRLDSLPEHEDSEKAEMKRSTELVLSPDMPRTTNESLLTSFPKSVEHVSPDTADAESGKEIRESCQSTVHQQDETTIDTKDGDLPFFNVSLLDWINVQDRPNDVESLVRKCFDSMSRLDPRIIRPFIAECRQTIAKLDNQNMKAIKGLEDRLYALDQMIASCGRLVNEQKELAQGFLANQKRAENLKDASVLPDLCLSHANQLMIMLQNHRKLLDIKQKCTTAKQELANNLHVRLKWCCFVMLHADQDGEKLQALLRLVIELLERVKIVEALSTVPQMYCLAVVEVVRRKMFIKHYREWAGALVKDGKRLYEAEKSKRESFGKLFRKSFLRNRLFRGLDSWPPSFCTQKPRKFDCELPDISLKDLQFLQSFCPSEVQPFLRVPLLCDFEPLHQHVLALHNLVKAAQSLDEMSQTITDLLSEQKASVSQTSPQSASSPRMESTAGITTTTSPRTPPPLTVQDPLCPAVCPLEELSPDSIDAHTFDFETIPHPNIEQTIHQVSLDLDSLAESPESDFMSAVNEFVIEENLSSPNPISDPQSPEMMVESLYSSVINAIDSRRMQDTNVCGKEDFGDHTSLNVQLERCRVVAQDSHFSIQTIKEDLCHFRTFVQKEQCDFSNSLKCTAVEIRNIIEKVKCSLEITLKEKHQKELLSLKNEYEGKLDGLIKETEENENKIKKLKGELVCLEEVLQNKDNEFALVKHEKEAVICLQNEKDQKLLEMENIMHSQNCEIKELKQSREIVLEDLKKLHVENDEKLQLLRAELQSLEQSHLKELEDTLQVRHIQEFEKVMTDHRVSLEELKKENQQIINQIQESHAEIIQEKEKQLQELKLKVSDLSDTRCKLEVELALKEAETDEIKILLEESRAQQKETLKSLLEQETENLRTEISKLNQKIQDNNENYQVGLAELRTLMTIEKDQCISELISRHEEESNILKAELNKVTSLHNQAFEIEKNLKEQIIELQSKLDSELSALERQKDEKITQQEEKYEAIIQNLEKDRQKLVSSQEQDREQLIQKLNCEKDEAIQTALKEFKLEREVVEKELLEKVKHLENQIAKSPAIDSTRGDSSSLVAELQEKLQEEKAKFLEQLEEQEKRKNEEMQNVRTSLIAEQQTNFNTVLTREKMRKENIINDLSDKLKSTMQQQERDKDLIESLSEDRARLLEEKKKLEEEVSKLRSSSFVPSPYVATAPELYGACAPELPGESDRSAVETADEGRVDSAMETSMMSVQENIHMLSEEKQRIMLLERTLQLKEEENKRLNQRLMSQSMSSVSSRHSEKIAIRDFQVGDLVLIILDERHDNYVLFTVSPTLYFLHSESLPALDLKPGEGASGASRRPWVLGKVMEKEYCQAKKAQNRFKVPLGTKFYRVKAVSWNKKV
UniProt Q9BYW2: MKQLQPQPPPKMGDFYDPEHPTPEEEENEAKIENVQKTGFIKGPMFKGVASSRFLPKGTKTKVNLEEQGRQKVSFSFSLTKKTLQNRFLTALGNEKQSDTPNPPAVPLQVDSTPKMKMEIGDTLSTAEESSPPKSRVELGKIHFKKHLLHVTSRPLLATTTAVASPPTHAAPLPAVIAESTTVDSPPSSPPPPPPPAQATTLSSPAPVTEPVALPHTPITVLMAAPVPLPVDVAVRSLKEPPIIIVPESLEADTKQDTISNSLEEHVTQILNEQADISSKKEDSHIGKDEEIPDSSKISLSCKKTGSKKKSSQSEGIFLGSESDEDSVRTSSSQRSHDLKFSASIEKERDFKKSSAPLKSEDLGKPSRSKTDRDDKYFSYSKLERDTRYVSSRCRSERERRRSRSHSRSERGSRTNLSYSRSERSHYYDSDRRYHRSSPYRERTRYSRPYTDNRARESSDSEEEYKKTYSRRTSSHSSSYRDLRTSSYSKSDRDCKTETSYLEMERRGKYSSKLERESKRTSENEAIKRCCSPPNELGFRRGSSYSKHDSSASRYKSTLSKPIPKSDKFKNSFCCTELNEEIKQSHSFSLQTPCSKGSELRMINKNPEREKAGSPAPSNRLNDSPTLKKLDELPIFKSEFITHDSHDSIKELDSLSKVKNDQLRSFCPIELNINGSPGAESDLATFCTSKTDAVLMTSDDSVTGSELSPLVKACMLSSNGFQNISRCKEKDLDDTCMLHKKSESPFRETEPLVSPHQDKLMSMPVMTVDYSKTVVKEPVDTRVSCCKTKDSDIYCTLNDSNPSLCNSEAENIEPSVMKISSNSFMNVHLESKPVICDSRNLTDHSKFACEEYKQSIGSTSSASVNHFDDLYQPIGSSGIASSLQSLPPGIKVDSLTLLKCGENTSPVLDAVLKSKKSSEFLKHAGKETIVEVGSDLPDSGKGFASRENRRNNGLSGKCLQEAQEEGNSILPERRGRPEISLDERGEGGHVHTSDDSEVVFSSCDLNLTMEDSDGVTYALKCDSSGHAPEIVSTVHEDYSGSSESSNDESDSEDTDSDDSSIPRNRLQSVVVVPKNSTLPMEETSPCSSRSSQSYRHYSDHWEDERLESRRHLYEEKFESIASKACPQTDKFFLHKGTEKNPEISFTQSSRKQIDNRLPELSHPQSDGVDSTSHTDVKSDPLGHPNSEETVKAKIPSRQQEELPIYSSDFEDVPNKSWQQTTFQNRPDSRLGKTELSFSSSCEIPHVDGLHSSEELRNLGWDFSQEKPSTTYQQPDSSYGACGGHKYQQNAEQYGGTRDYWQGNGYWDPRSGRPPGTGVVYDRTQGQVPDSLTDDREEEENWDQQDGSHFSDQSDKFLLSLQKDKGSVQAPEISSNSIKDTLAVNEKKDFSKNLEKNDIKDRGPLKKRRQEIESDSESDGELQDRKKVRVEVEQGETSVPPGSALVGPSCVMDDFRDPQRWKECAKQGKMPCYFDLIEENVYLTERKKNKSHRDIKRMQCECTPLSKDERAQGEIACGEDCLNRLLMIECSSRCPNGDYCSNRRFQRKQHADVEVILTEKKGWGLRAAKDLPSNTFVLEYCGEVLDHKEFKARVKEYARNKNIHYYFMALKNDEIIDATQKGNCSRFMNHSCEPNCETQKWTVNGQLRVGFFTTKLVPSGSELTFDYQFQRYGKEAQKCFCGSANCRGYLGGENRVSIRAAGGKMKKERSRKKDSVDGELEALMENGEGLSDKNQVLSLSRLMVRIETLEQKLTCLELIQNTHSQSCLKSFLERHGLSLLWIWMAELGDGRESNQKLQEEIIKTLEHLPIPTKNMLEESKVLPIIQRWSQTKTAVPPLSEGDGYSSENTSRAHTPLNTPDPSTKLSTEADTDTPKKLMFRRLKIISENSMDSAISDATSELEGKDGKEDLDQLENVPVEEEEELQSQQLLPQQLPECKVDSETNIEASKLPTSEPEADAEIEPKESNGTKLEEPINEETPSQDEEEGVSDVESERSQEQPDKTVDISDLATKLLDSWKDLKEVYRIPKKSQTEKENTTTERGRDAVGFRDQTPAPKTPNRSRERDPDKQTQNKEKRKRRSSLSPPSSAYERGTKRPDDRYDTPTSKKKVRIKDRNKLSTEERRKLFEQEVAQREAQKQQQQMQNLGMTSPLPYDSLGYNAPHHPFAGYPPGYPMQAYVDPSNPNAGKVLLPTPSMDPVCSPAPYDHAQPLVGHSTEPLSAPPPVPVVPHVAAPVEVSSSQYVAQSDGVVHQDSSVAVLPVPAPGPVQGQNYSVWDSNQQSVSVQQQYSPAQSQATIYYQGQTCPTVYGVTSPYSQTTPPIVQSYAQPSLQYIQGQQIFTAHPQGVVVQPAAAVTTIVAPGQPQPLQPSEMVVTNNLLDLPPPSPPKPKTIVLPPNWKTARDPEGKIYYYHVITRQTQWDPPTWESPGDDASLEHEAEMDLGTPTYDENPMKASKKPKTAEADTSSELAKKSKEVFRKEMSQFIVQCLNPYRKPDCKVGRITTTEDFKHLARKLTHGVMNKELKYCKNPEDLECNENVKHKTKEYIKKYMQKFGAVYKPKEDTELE
UniProt P19474: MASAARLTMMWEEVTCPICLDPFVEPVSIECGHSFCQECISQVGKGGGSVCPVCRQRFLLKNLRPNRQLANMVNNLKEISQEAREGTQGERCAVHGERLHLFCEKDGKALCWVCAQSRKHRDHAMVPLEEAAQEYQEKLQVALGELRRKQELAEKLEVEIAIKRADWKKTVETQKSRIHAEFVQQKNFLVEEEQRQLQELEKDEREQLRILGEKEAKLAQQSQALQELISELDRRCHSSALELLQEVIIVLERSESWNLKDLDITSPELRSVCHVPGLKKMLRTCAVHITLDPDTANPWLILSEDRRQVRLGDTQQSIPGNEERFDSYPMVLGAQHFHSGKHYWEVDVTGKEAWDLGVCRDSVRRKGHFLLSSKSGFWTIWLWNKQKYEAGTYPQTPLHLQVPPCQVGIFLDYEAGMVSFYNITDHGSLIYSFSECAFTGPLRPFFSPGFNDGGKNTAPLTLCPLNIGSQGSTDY

Experiments:
[1] = molecular target: focal adhesion kinase family interacting protein of 200 kD (FIP200), endogenous (human (endogenous in HEK293)) (UniProt Q8TDY2); assay: co-IP; endogenous proteins; cells lysed in NP-40 lysis buffer, lysate with protein G-Sepharose beads and anti-FIP200 or anti-Trim21 antibody at 4 °C overnight, four washes, Western blot
flag-SETD2 (human) = flag-SETD2 (human) (UniProt Q9BYW2); assay: co-IP; flag-SETD2 or flag-tagged SETD2 fragments overexpressed in HEK293, pulled down by anti-flag antibody; endogenous FIP200 detected by immunoblot
[2] = molecular target: Trim21, endogenous (human (endogenous in HEK293 or HeLa, cell line not stated)) (UniProt P19474); assay: co-IP; endogenous proteins; cells lysed in NP-40 lysis buffer, lysate with protein G-Sepharose beads and anti-FIP200 or anti-Trim21 antibody at 4 °C overnight, four washes, Western blot

Substance: Trim21, endogenous (from UniProt P19474 1-475) (enzyme)
- binding [1]: binds

Substance: focal adhesion kinase family interacting protein of 200 kD (FIP200), endogenous (from UniProt Q8TDY2 1-1594)
- binding (flag-SETD2 (human)): binds
- binding [2]: binds
